# Some of these results come from one statement about several compounds together.
# System: SKIN2
# Assay: Quantitative RT-PCR of SKIN2 mRNA in leaves of 2-week-old rice seedlings after stress or ABA
# Format: in vivo
# Conditions: 24 h after 1 μM ABA
smiles,measurement,value
"CC1=CC(=O)CC(C)(C)[C@@]1(O)/C=C/C(C)=C\C(=O)O [ABA, abscisic acid]",Induction of SKIN2 mRNA accumulation,≤ 1.7 fold

# Reference: patent US20180273970A1, “PLASMID, TRANSFORMED PLANT CELL AND TRANSGENIC PLANT COMPRISING THE SAME, AND METHODS FOR PREPARING A TRANSGENIC PLANT AND FOR INCREASING YIELD OF A PLANT UNDER ABIOTIC STRESSES” (Academia Sinica, priority 2014, published 2018)
